Data: publication PMC2947498
Results are given in words; binding and its absence hold for the method and conditions named. In cells and extracts the contact can be indirect. Some binding calls cover weakened binding; strength is not graded here.

Amino acid sequences for entries named in this document (tags omitted). A change or cut given only in a name is not applied to a line headed by its entry. Chains listed by the source or under a name are the forms on record and can include a tag or linker. Residues count along the entry.
UniProt P61586: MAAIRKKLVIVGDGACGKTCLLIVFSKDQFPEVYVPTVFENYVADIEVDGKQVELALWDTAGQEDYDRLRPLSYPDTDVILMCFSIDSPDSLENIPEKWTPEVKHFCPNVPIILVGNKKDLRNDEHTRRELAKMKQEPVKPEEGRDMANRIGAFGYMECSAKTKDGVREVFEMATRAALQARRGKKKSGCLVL
GST-RhoAV14 (P61586, form named): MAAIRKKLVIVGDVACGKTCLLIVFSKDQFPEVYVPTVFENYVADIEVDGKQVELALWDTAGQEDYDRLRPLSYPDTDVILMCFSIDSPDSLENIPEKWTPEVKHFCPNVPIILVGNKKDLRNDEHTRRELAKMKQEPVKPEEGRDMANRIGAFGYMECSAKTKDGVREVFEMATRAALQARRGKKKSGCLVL
UniProt Q9Y4D1, residues 1-545: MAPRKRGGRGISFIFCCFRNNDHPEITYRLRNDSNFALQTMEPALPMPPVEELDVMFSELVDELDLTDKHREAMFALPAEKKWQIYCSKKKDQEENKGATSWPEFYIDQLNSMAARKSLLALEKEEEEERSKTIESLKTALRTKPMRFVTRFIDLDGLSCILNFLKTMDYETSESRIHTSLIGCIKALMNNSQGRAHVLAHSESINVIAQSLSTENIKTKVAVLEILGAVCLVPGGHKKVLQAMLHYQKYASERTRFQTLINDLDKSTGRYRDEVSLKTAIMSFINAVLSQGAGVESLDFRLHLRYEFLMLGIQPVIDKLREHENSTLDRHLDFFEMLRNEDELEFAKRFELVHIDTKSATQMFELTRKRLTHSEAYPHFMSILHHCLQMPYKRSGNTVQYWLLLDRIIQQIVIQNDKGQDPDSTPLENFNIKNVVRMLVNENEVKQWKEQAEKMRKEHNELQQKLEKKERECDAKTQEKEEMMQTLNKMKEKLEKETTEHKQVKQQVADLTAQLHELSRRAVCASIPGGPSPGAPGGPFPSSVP

Molecular target: GST-RhoAV14 (UniProt P61586)
Experiment: pull-down; in-vitro pulldown: equal amounts of DAAM1-N WT or GBD mutants added to Sepharose beads loaded with GST or GST-RhoAV14; transferred to PVDF, stained and probed

GFP-Flag-DAAM1-N (residues 1-545) (from UniProt Q9Y4D1 1-545) (domain or fragment)
binding: binds
